Test results published in publication doi:10.1101/552851.
These are yes or no findings as the source states them, for the method shown. In cells and extracts the contact can be indirect. Some entries that bind do so weakly or less than the wild type. One block for each substance: values may come before it.

By UniProt entry, the sequences of proteins in these tests, tags left out.
UniProt Q9H1Y3: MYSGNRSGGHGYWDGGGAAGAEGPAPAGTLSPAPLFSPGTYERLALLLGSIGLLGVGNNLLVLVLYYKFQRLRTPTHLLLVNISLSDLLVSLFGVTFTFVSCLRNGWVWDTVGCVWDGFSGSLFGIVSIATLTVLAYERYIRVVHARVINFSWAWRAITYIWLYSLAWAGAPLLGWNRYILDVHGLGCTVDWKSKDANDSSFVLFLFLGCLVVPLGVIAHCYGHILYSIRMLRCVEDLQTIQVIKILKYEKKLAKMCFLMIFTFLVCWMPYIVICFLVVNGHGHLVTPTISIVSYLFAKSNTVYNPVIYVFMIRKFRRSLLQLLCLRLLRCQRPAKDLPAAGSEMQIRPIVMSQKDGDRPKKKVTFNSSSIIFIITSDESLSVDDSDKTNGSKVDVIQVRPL
UniProt Q01726: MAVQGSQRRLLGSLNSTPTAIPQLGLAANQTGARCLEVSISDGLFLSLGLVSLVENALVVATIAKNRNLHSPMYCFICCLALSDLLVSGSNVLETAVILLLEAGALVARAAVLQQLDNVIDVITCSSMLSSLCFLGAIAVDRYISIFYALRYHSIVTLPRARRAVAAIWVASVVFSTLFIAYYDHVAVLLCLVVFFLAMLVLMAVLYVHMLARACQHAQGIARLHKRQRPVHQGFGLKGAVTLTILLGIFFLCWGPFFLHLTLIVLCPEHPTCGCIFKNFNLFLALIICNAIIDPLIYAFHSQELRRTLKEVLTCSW

Key:
Assay in all cases: co-IP
[1] = target: OPN3, endogenous in human epidermal melanocytes (human (endogenous in HEMs)) (UniProt Q9H1Y3)
[2] = target: OPN3-cFLAG (human opsin3 with a C-terminal FLAG tag) (human) (UniProt Q9H1Y3)
[3] = target: MC1R-n(3xHA) (human melanocortin-1 receptor with an N-terminal 3xHA tag) (human) (UniProt Q01726)

binding [1]: binds
Substance: MC1R, endogenous in human epidermal melanocytes (from UniProt Q01726 1-317) (receptor)

binding [2]: binds
Substance: MC1R-n(3xHA) (human melanocortin-1 receptor with an N-terminal 3xHA tag) (from UniProt Q01726 1-317)

binding [3]: binds
Substance: OPN3-cFLAG (human opsin3 with a C-terminal FLAG tag) (from UniProt Q9H1Y3 1-402) (receptor)
